Measurements taken from patent US20230167073A1 (Teijin Pharma Limited, priority 2020, published 2023).
Structures were worked out from names or drawings and are uncertain.

Protein sequences, listed by entry. Tags and fused reporters are not part of them.
UniProt Q9Y210, whole entry: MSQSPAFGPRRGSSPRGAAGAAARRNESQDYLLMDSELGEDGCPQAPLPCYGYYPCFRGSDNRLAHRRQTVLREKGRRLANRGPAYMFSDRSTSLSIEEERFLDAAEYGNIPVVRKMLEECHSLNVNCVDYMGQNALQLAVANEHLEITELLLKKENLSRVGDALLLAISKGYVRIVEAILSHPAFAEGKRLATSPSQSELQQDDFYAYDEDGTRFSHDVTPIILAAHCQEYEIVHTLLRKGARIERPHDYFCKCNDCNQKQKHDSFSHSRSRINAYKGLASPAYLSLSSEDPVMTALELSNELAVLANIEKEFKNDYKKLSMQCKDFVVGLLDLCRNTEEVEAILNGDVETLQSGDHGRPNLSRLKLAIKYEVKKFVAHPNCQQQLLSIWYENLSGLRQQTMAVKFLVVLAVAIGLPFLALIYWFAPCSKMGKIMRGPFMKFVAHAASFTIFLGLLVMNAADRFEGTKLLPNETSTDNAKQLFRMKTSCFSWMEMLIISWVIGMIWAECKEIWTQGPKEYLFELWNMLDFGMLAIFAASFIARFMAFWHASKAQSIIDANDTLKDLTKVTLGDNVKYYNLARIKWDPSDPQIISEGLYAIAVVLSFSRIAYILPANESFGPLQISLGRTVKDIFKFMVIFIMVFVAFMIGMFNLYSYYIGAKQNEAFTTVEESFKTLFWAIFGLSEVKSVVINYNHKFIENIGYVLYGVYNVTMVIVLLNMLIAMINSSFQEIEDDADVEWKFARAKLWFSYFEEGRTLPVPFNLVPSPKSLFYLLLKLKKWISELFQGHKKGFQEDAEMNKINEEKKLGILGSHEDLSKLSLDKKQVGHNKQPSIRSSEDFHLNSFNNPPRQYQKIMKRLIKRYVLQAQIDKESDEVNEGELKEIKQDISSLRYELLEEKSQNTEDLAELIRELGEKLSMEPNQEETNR

Target: Human TRPC6 (Homo sapiens, UniProt Q9Y210)
Experiment: Evaluation of TRPC6 channel inhibitory activity (2), HEK293 cells with stably introduced human TRPC6, OAG stimulation, FLIPR tetra (Compound Nos. 1293 to 1405)
Settings: HEK293 cells with stably introduced human TRPC6, OAG 50 μM/0.5% DMSO
Experimental: Evaluation of TRPC6 Channel Inhibitory Activity (2) (Compound Nos. 1293 to 1405)
The activity of the TRPC6 inhibitor was measured by stimulating HEK293 cells, in which human TRPC6 was stably introduced, with OAG (1-Oleoyl-2-acetyl-sn-glycerol, Miliipore Sigma, 06754), using the FLIPR tetra system. The cells were proliferated in a humid environment at 37° C. […] A volume of 12.5 μL of OAG solution was added, and activation of TRPC6 channel was measured using the FLIPR tetra system assaying the change in intracellular calcium level as an index. The 180 seconds imaging frame was defined as the background signal, and the subtraction of the background signal from the raw data was used as the fluorescence peak signal. Each fluorescence peak signal is standardized using an OAG-induced signal and buffer-induced signal as 100% and 0%, respectively. […]

## Cn1nc(-c2ccccn2)cc1Oc1cc(Cl)cnc1-c1ccc(CN)cn1
  Inhibitory activity (pIC50 class): ++ (6.0≤pIC50<8.0)
